Record: PubChem BioAssay AID504808 (Drosophila RNAi Screening Center, 2011)

Screen: 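Genes whose loss lifts activity of an E2F-responsive reporter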 (primary screen)
System: Drosophila S2 cells
Reagent: long dsRNA against Drosophila genes
Measurement: 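Firefly luciferase driven by E2F sites, normalised to Renilla luciferase on the same minimal promoter, measured by plate reader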
Direction: E2F firefly: higher = more E2F reporter activity; Renilla normaliser: higher = more normaliser reporter signal
Rule for the call: 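Called active if the normalised E2F reporter went up by over 50%; the cutoff is arbitrary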
The deposit covers about 21,000 reagents; shown is an unselected part of those that have a named target and a result. Over the whole deposit, 18 (0.084%) were called active. 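Raw counts without plate normalisation, one of two replicates; the ratio scores behind the calls were not deposited.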 A number with no mark means an inactive call. The numbers tell different reagents against one gene apart. A plus sign joins genes that one reagent is predicted to hit. The record does not give: the amount of reagent, the time to read-out.

target | dsRNA no. | E2F firefly, rep 1 | Renilla normaliser, rep 1
nAChRalpha1 | 1 | 74631 | 2327
nAChRalpha1 | 2 | 76033 | 2601
nAChRalpha1 | 3 | 85905 | 2229
nAChRalpha1 | 4 | 1.08e5 | 5425
CG12947 | 1 | 1.46e5 | 6652
Oseg6 | 1 | 1.44e5 | 5132
CG10339 | 1 | 1.34e5 | 5184
CG9316 | 1 | 1.02e5 | 4452
Pstk + Tim9b | 1 | 1.71e5 | 5769
Pstk + Tim9b | 2 | 1.43e5 | 5998
stum | 1 | 1.19e5 | 4719
stum | 2 | 1.12e5 | 4986
CG31313 | 1 | 85852 | 2460
CG13868 | 1 | 71420 | 3228
Elk | 1 | 82213 | 3165
CG14422 | 1 | 1.15e5 | 6023
CG5611 | 1 | 1.02e5 | 6316
CNPYb | 1 | 77664 | 3593

Not a retest: entries from further up.
target | dsRNA no. | E2F firefly, rep 1 | Renilla normaliser, rep 1
Oseg6 | 1 | 1.44e5 | 5132
CG10339 | 1 | 1.34e5 | 5184

Additional entries follow.
target | dsRNA no. | E2F firefly, rep 1 | Renilla normaliser, rep 1
shep | 1 | 94686 | 4373
shep | 2 | 99160 | 4301
shep | 3 | 74505 | 3734
wge | 1 | 61145 | 3510
wge | 2 | 1.11e5 | 5931
CG9328 | 1 | 93443 | 3352
borr | 1 | 63787 | 3892
beat-IIb | 1 | 71447 | 1901
beat-IIb | 2 | 1.07e5 | 6922
beat-IIb | 3 | 1.17e5 | 5771
Dlg5 | 1 | 73351 | 2855
CG14629 | 1 | 84600 | 6170
CG5321 | 1 | 2.29e5 | 5946
CG9312 | 1 | 78796 | 3892
Muc12Ea | 1 | 2.33e5 | 7900
Andorra | 1 | 1.63e5 | 6145
